From patent publication US20080181891A1
These are yes or no findings as the source states them, for the method shown.

Molecular target: canine IGF-IR (canine)
Assay: cells treated with antibody, IGF-I stimulation, immunoprecipitation of IGF-IR and Western blot

B1: anti-IGF-IR antibody 2.12.1fx (antibody, human IgG2, kappa, V domains shown)
VH: QVQLVESGGGLVKPGGSLRLSCAASGFTFSDYYMSWIRQAPGKGLEWVSYISSSGSTRDYADSVKGRFTISRDNAKNSLYLQMNSLRAEDTAVYYCARDGVETTFYYYYYGMDVWGQGTTVTVSS
VL: DIQMTQSPSSLSASVGDRVTITCRASQDIRRDLGWYQQKPGKAPKRLIYAASRLQSGVPSRFSGSGSGTEFTLTISSLQPEDFATYYCLQHNNYPRTFGQGTKVEIKR
B1 was tested, and the binding was “no binding (tested: 1 µg/ml)”.
